Laboratory results from patent publication US20230203098A1, “HUMAN TRANSFERRIN RECEPTOR BINDING PEPTIDE” (priority 2020, published 2023).
Results are given in words; binding and its absence hold for the method and conditions named. Some entries that bind do so weakly or less than the wild type. For part of these data: Tags and fused reporters may be left off the sequences shown.

B1: 894_3m_PEG4_KFITC (peptide)
peptide: AVFVWNYYIIRRYYC
modifications: 3 MeF; 14 MeY; C-term PEG4c-dk-FITC (5-FAM in paragraph 405); cyclic 1-15 thioether
B2: 894_3_5m_PEG08_K(Mal) (peptide)
peptide: AVFVWNYYIIRRYYC
modifications: 3 MePhe; 5 MeTrp; 14 MeTyr; C-term PEG8c-K(Maleimide)-Cys; cyclic 1-15 thioether
B3: 894_3_5m_PEG04_K(Mal) (peptide)
peptide: AVFVWNYYIIRRYYC
modifications: 3 MePhe; 5 MeTrp; 14 MeTyr; C-term PEG4c-K(Maleimide)-Cys; cyclic 1-15 thioether

Biological target: human transferrin receptor (hTfR) (human) (UniProt P02786)
Assay: SPR

binding | Binder
binds | AVFVWNYYIIRRYYC (14 MeTyr; cyclic 1-15 thioether (chloroacetyl-Ala1 to Cys15)) [hTfR No. 894]

Biological target: human transferrin receptor (hTfR) (human) (UniProt P02786)
Assay: SPR in the same manner as in Example 2

binding | Binder
binds | B1

Biological target: human transferrin receptor (hTfR) (human) (UniProt P02786)
Assay: SPR; grade B: KD >=1 nM, <100 nM

binding | Binder
binds | AVFVWNYYIIRRYYC (3 MePhe; 14 MeTyr; C-term G-G-K(Maleimide)-Cys; cyclic 1-15 thioether) [894_3m_GG_K(Mal)]
binds | AVFVWNYYIIKRYYC (5 MeTrp; 14 MeTyr; C-term PEG4c-dc(MalFITC); cyclic 1-15 thioether) [894_v07_PEG4_C_Mal(FITC)]
binds | AVFVWNYYIIRRYYC (3 MePhe; 14 MeTyr; C-term G-G-G-S-S-K(Maleimide)-Cys; cyclic 1-15 thioether) [894_3m_GGGSS_K(Mal)]
binds | AVFVWNYYIIRRYYC (3 MePhe; 14 MeTyr; C-term G-K(Maleimide)-Cys; cyclic 1-15 thioether) [894_3m_G_K(Mal)]
binds | AVFVWNYYIIRRYYC (11 MeArg; 14 MeTyr; C-term PEG4c-Dap(FITC); cyclic 1-15 thioether) [SP26_hTfR_894_11(me)_FITC]
binds | AVFVWNYYIIRRYYC (5 MeTrp; 14 MeTyr; C-term PEG4c-Dap(FITC); cyclic 1-15 thioether) [SP20_hTfR_894_05(me)_FITC]
binds | AVFVWNYYIIKRYYC (3 MePhe; 5 MeTrp; 14 MeTyr; C-term PEG4c-dc(MalFITC); cyclic 1-15 thioether) [894_v04_PEG4_C_Mal(FITC)]
binds | AVFVWNYYIIRRYYC (1 MeAla; 14 MeTyr; C-term PEG4c-Dap(FITC); cyclic 1-15 thioether) [SP16_hTfR_894_01(me)_FITC]
binds | AVFVWNYYIIRRYYC (3 MePhe; 14 MeTyr; C-term G-G-S-G-S-S-K(Maleimide)-Cys; cyclic 1-15 thioether) [S94_3m_GGSGSS_K(Mal)]
binds | AVFVWNYYIIRRYYC (3 MePhe; 14 MeTyr; C-term G-G-S-K(Maleimide)-Cys; cyclic 1-15 thioether) [894_3m_GGS_K(Mal)]
binds | AVFVWNRYIIRRYYC (3 MePhe; 14 MeTyr; C-term PEG12c; cyclic 1-15 thioether) [894_3m_7R]
binds | AVFVWNYYIIRRYYC (5 MeTrp; 14 MeTyr; C-term G-S-S-G-S-S-K(Maleimide)-Cys; cyclic 1-15 thioether) [894_5m_GSSGSS_K(Mal)]
binds | AVFVWNYYIIRRYYC (3 MePhe; 14 MeTyr; C-term K(Maleimide)-Cys; cyclic 1-15 thioether) [894_3m_K(Mal)]
binds | B2
binds | AVFVWNYYIIKRYYC (3 MePhe; 5 MeTrp; 14 MeTyr; C-term PEG12c-dc(MalFITC); cyclic 1-15 thioether) [894_v04_PEG12_C_Mal(FITC)]
binds | AVFVWNYYIIRRYYC (3 MePhe; 14 MeTyr; C-term PEG12c-dc(MalFITC); cyclic 1-15 thioether) [894_v01_PEG12_C_Mal(FITC)]
binds | AVFVWNYYIIKRYYC (5 MeTrp; 14 MeTyr; C-term PEG12c-dc(MalFITC); cyclic 1-15 thioether) [894_v07_PEG12_C_Mal(FITC)]
binds | AVFVWNYYIIDRFRC (C-term PEG11-K(FITC); cyclic 1-15 thioether) [JCR_hTfR_000690_PEG11_K(FITC)]

binding | Binder
binds | AVFVWNYYIIRRYYC (3 MePhe; 14 MeTyr; C-term G-G-S-S-K(Maleimide)-Cys; cyclic 1-15 thioether) [894_3m_GGSS_K(Mal)]
binds | AVFVWNYYIIRRYYC (3 MePhe; 5 MeTrp; 14 MeTyr; C-term PEG12c-dc(MalFITC); cyclic 1-15 thioether) [894_v03_PEG12_C_Mal(FITC)]
binds | B3
binds | ANRIVFVWNYYIIPRHC (14 printed 'pro'; 16 MeHis; C-term PEG11-K(FITC); cyclic 1-17 thioether) [JCR_hTfR_000809_PEG11_K(FITC)]
binds | AVFVWNYYIIRRYYC (14 MeTyr; C-term PEG4c-Dap(FITC); cyclic 1-15 thioether) [SP01_hTfR_894_FITC]
binds | ANRIVFVWNYYIIPRYC (14 printed 'pro'; 16 MeTyr; C-term PEG11-K(FITC); cyclic 1-17 thioether) [JCR_hTfR_000696_PEG11_K(FITC)]
binds | AVFVWNYYIIRRYYC (3 MePhe; 14 MeTyr; C-term G-G-S-G-E-S-K(Maleimide)-Cys; cyclic 1-15 thioether) [894_3m_GGSGES_K(Mal)]
binds | ASAVFVWNYYIINRWAC (C-term PEG11-K(FITC); cyclic 1-17 thioether) [JCR_hTfR_100014_PEG11_K(FITC)]
binds | ANSRTVWVWNYYIVTRC (C-term PEG11-K(FITC); cyclic 1-17 thioether) [JCR_hTfR_100017_PEG11_K(FITC)]
binds | AVFVWNYYIIRRYYC (14 MeTyr; C-term PEG12 (text: PEG11)-K(VivoTag); cyclic 1-15 thioether) [hTfR_000894_PEG11_(VivoTag)]
binds | AVFVWNYYIIRRYYC (5 MeTrp; 14 MeTyr; C-term PEG12c-dc(MalFITC); cyclic 1-15 thioether) [894_v06_PEG12_C_Mal(FITC)]
binds | AVFVWNYYIIDRFRSYC (16 MeTyr; C-term PEG11-K(FITC); cyclic 1-17 thioether) [JCR_hTfR_000895_PEG11_K(FITC)]
binds | AVFVWNYYIIKRYYC (3 MePhe; 14 MeTyr; C-term PEG12c-dc(MalFITC); cyclic 1-15 thioether) [894_v02_PEG12_C_Mal(FITC)]
binds | AVFVWNYYIIDRFRSHC (16 MeHis; C-term PEG11-K(FITC); cyclic 1-17 thioether) [JCR_hTfR_000812_PEG11_K(FITC)]
binds | AVFVWNYYIIRRYYC (3 MePhe; 14 MeTyr; C-term PEG4c-Dap(FITC); cyclic 1-15 thioether) [SP18_hTfR_894_03(me)_FITC]
binds | AVFVWNYYIIRRYYC (14 MeTyr; C-term PEG12c-dc(MalFITC); cyclic 1-15 thioether) [894_v00_PEG12_C_Mal(FITC)]
binds | AVFVWNYYIIKRYYC (3 MeF; 14 MeY; C-term G-K; cyclic 1-15 thioether) [894_variant_219]

Biological target: human transferrin receptor (hTfR) (human) (UniProt P02786)
Assay: SPR; grade C: KD >=100 nM, <1 uM

binding | Binder
binds | AVFVWNYYIIEAYYC (14 MeY; cyclic 1-15 thioether) [JCR_hTfR_000894_E11A12]
binds | AVFVWHYYIIRRYYC (3 MeF; 14 MeY; cyclic 1-15 thioether) [894_3m_6H]
binds | AVFGWNYYIIRRYYC (3 MePhe; 14 MeTyr; C-term PEG12c; cyclic 1-15 thioether) [894_3m_4G]
binds | FVFVWNYYIIRRYYC (3 MePhe; 14 MeTyr; C-term PEG12c; cyclic 1-15 thioether) [894_3m_1F]
binds | AVFVWNYYIIRRYEC (3 MePhe; C-term PEG12c; cyclic 1-15 thioether) [894_3m_14E]
binds | AVFVWNYYIIRRFYC (C-term G-G-S-G-S-G-K(Maleimide)-C; cyclic 1-15 thioether) [894_v157_K(Mal)]
binds | AVFSWNYYIIRRYYC (3 MePhe; 14 MeTyr; C-term PEG12c; cyclic 1-15 thioether) [894_3m_4S]
binds | AVFVWNYYIVHC (C-term PEG11-K-FITC; cyclic 1-12 thioether) [JCR_hTfR_100003_PEG11_K(FITC)]
binds | AVFVWAYYIIRRYYC (3 MePhe; 14 MeTyr; C-term PEG12c; cyclic 1-15 thioether) [894_3m_6A]
binds | AVFAWNYYIIRRYYC (3 MePhe; 14 MeTyr; C-term PEG12c; cyclic 1-15 thioether) [894_3m_4A]

Biological target: human transferrin receptor (hTfR) (human) (UniProt P02786)
Assay: SPR; grade A: KD <1 nM

binding | Binder
binds | AVFVWNYYIVDRFGTGC (C-term PEG11-K(FITC); cyclic 1-17 thioether) [JCR_hTfR_100022_PEG11_K(FITC)]
binds | AVFVWNYYIVGRNVPNC (15 printed 'pro'; C-term PEG11-K(FITC); cyclic 1-17 thioether) [JCR_hTfR_100025_PEG11_K(FITC)]
binds | AVFVWNYYIKRRYYC (14 MeY; cyclic 1-15 thioether) [JCR_hTfR_000894_K10]
binds | AVFVWNYYIIRRYYC (5 MeW; 14 MeY; cyclic 1-15 thioether) [894_5m]
binds | AVFVWNYYIIRRYYC (14 MeTyr; C-term PEG11-K(FITC); cyclic 1-15 thioether) [JCR_hTfR_000894_PEG11_K(FITC)]
binds | B1
binds | AVFVWNYYIIRRYYC (3 MePhe; 14 MeTyr; C-term PEG4c-PEG4c-K(Maleimide)-Cys; cyclic 1-15 thioether) [894_3m_PEG4_PEG4_K(Mal)]
binds | AVFVWNYYIIKRYYC (14 MeY; cyclic 1-15 thioether) [JCR_hTfR_000894_K11]
binds | AVFVWNYYIIRRYYC (5 MeW; 14 MeY; C-term PEG4c; cyclic 1-15 thioether) [894_5m_PEG04]

Biological target: human transferrin receptor (hTfR) (human) (UniProt P02786)
Assay: SPR, hTfR immobilised

binding | Binder
binds | AVFVWNYYIIRRYYC (14 MeTyr; cyclic 1-15 thioether (chloroacetyl-Ala1 to Cys15)) [hTfR No. 894]
